Laboratory results: PMC8274477
These are yes or no findings as the source states them, for the method shown. Some binding calls cover weakened binding; strength is not graded here.

How the values were obtained:
Assay in all cases: peptide or protein array; HuProt human proteome microarray; 5 ug/5 ml biotin-labelled LUBAC or OTULIN in solution, 1 h at room temperature; Cy5-streptavidin, scanned at 635 nm; BSA as negative control; hits: Z-score >= 3 and I_(Mean_Ratio) >= 1.4; both purified
[1] = target: T1, CPT1A (human) (UniProt P50416)
T1 sequence: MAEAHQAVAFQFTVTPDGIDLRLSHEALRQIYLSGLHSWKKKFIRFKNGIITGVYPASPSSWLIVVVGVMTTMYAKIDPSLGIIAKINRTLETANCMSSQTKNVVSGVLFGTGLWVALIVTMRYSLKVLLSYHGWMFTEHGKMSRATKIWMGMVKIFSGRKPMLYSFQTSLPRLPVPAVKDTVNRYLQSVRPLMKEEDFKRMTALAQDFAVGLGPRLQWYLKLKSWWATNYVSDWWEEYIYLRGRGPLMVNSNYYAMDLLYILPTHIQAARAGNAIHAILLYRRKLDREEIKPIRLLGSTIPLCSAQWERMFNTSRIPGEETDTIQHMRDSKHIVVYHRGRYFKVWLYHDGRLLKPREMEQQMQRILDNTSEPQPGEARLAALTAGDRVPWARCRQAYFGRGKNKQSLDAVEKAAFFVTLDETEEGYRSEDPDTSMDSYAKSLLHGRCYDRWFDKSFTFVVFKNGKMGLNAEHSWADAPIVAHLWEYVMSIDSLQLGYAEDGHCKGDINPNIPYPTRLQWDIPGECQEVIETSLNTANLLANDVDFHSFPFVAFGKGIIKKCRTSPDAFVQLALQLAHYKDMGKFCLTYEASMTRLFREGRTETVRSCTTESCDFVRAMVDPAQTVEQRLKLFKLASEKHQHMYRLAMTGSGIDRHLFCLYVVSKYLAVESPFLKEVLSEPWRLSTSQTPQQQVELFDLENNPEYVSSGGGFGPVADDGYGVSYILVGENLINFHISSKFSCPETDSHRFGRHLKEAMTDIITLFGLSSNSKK

[2] = target: T2, LAG3 (spot on the microarray) (human) (UniProt P18627)
T2 sequence: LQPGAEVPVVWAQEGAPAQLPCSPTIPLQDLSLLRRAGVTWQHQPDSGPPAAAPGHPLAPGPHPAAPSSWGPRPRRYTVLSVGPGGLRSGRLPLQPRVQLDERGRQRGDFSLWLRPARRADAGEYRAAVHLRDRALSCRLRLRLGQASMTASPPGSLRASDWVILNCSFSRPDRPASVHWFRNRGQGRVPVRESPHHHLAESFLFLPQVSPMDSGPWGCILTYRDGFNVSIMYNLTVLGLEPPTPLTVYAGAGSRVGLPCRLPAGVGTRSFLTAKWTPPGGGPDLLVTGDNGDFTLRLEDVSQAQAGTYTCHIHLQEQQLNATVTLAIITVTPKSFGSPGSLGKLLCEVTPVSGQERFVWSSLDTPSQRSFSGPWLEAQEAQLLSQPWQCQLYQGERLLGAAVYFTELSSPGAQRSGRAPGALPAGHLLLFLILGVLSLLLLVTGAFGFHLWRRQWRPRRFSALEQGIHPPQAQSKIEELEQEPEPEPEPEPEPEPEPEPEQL

[3] = target: T3, NTPCR (human) (UniProt Q9BSD7)
T3 sequence: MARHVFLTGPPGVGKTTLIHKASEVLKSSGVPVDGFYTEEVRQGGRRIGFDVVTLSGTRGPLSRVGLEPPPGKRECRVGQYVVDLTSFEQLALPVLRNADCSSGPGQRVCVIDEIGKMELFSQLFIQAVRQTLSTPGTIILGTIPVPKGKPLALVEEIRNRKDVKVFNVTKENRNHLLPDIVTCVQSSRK

[4] = target: T4, ODAM (human) (UniProt A1E959)
T4 sequence: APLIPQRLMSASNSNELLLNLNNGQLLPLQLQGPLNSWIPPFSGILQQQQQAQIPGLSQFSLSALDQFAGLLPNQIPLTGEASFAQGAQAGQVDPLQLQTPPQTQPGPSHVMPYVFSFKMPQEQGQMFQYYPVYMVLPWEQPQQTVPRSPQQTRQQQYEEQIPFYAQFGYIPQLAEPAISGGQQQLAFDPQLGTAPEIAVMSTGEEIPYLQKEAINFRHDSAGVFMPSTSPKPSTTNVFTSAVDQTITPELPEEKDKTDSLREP

[5] = target: T5, SH3GLB2 (human) (UniProt Q9NR46)
T5 sequence: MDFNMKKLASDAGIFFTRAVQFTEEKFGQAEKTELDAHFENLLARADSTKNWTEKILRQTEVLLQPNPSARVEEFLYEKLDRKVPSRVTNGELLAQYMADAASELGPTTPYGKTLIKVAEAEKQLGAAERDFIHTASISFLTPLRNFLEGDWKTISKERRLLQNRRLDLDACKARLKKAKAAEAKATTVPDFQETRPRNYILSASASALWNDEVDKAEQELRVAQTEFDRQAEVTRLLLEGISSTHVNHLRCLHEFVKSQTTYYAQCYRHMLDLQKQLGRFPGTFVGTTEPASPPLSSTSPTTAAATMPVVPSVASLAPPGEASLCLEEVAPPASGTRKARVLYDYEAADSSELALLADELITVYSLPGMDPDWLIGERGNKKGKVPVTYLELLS

binding [1]: binds | binding [2]: binds | binding [3]: binds | binding [4]: binds | binding [5]: binds
Substance: linear ubiquitin chain assembly complex (LUBAC), purified as HIS-tagged HOIP with the subunit HOIL-1, biotin-labelled (from UniProt Q96EP0 1-1072; Q9BYM8 1-510)
